Some results were stated once for a whole list of compounds, not compound by compound.
The molecules below were run on JAK1, JAK2 and JAK3 (assay: Selectivity of TYK2 over JAK1, JAK2 and JAK3). Conditions: TYK2 versus JAK1, JAK2 and JAK3.
Format: binding, human
With C[C@@H](CO)NC(=O)Cn1cc(Nc2nccc(NCc3c(Cl)cccc3Cl)n2)cn1 [Example I-3, (S)-2-(4-((4-((2,6-dichlorobenzyl)amino)pyrimidin-2-yl)amino)-1H-pyrazol-1-yl)-N-(1-hydroxypropan-2-yl)acetamide] the “selectivity over all of JAK1, JAK2 and JAK3” value (from here on “selectivity over all of JAK1”) was over 100 fold. With Fc1cc(F)c(CNc2ccnc(Nc3cnn(CCN4CCOCC4)c3)n2)c(F)c1 [Example I-112] the “selectivity over all of JAK1” value was over 100 fold. With CC(C)NC(=O)Cn1cc(Nc2nccc(NCc3c(F)cccc3F)n2)cn1 [Example I-62] the “selectivity over all of JAK1” value was over 100 fold. For CC(C)NC(=O)Cn1cc(Nc2ncc(F)c(NCc3c(F)cc(F)cc3F)n2)cn1 [Example I-38], the “selectivity over all of JAK1” value was over 100 fold. With CC(C)NC(=O)Cn1cc(Nc2nccc(NCc3c(F)cc(F)cc3F)n2)cn1 [Example I-50] the “selectivity over all of JAK1” value was over 100 fold. For COc1ccc(F)c(CNc2ccnc(Nc3cnn(CC(=O)NC4CC4)c3)n2)c1F [Example I-125], the “selectivity over all of JAK1” value was over 100 fold. For COc1ccc(F)c(CNc2ccnc(Nc3cnn(CC(=O)NC(C)C)c3)n2)c1F [Example I-65], the “selectivity over all of JAK1” value was over 100 fold. CC(C)NC(=O)Cn1cc(Nc2nccc(NCc3cccc(OC(F)F)c3)n2)cn1 [Example I-67] was tested, and the “selectivity over all of JAK1” value was over 100 fold.

Source: patent publication US9296725B2, “Heterocyclyl pyrimidine analogues as TYK2 inhibitors” (Cellzome Limited, priority 2012, dated 2016)
